Data as given in PubChem BioAssay AID1224830 (NIAID, 2016)
Assay: 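Host factors that control LPS-induced TNF expression in human macrophages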 (primary screen). Cell system: human THP-1 monocytic leukaemia cells, TNF dual-luciferase reporter clone, PMA-differentiated to macrophage-like cells. Knock-down reagent: siRNA pool against human genes, 50 nM. Duration: LPS for 4 h, given about 3 days after siRNA transfection. Challenge: bacterial LPS (TLR4 ligand), 10 ng/ml. Measurement: 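TNF firefly reporter luminescence divided by renilla, normalised to the plate median, then turned into a robust z-score for each replicate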. Scale: TNF reporter robust z-score: higher = stronger TNF reporter response to LPS. Call rule: 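a well is active when its z-score exceeds 2.8 or falls below -1.5; control wells carry no call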.
The whole screen tested about 18,000 reagents; shown is a random part of them. About 2,900 of them (16%) were called active. 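Calls are made per well; low scores hint the gene aids the LPS response, high scores that it dampens it.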 Repeated entries: four replicate wells of each siRNA pool. No sequences are given here.

How did the screen score ITPK1?
TNF reporter robust z-score: 0.38; Outcome: inactive

With ITPK1, what does the deposit list?
TNF reporter robust z-score: 0.28; Outcome: inactive

What did the screen give for ITPK1?
TNF reporter robust z-score: 0.68; Outcome: inactive

With ITPK1, what does the deposit list?
TNF reporter robust z-score: -0.31; Outcome: inactive

What is on record for CPSF1?
TNF reporter robust z-score: 0.28; Outcome: inactive

How did the screen score CPSF1?
TNF reporter robust z-score: 0.62; Outcome: inactive

With CPSF1, how do the results read?
TNF reporter robust z-score: 0.41; Outcome: inactive

How did the screen score CPSF1?
TNF reporter robust z-score: 0.76; Outcome: inactive

Part of the list above, reformatted.
Target gene,TNF reporter robust z-score,Outcome
CPSF1,0.62,inactive
CPSF1,0.41,inactive
CPSF1,0.76,inactive

Continued.
Which result is listed for DDX60?
TNF reporter robust z-score: -0.7; Outcome: inactive

What is on record for DDX60?
TNF reporter robust z-score: 0.15; Outcome: inactive

With DDX60, how do the results read?
TNF reporter robust z-score: -0.61; Outcome: inactive

How did the screen score DDX60?
TNF reporter robust z-score: 0.3; Outcome: inactive

Which result is listed for AJUBA?
TNF reporter robust z-score: 0.46; Outcome: inactive

With AJUBA, what was measured?
TNF reporter robust z-score: -0.01; Outcome: inactive

How did the screen score AJUBA?
TNF reporter robust z-score: 0.23; Outcome: inactive

With AJUBA, what does the deposit list?
TNF reporter robust z-score: 3.91; Outcome: active

What did the screen give for MTHFD2L?
TNF reporter robust z-score: 0.21; Outcome: inactive

What is on record for MTHFD2L?
TNF reporter robust z-score: 1.02; Outcome: inactive

How did the screen score MTHFD2L?
TNF reporter robust z-score: 0.46; Outcome: inactive

What is on record for MTHFD2L?
TNF reporter robust z-score: 1.48; Outcome: inactive
